Entries after “also recorded” stand apart in the source; their conditions may differ. Some entries share one result that the patent states for a list of compounds.
Assays:
Type in all cases: cell-based, human
HUVEC cells = assay: MTT cytotoxicity assay, HUVEC cells; settings: normal cells (HUVEC)
Description: (§1) A series of dicarboximides derivatives (table 1) was tested for cytotoxic properties against four cell lines. The tests were conducted by means of MTT assay where yellow tetrazole salt was processed by the dehydrogenases in mitochondria of live cells into violet formazan. The following cell lines were used:
- HUVEC cells (normal human endothelial cells).
(§2) 1. HeLa, K562, HL60, HUVEC cells in an amount of 7 thousand cells / well (in 200 µL medium) were seeded in 96-well plates. Cells were incubated overnight in an incubator (37°C, 5% CO2)
(§3) 2. Test compounds were dissolved in DMSO and added in an amount of 2µL to the surface of the cells to give the following final concentrations in the cell culture (1 mM, 10 µm, 100 nM, 1 nM). As a control, cells exposed to 1% DMSO were used.
(§4) 3. Cytotoxicity of the test compounds was evaluated by MTT test. After 48-hour incubation of HeLa, K562, HL60 or HUVEC cells with the test compounds, MTT (5mg/mL) was added in an amount of 25µL/well. MTT, a yellow tetrazolium salt was reduced to purple formazan by mitochondrial dehydrogenases of living cells. The amount of formazan could be determined spectrophotometrically and was proportional to the number of live cells. Cells were incubated with MTT for 2 hours in an incubator (37°C, 5% CO2). Next, lysis buffer containing SDS and DMF was added (95µL/well) to each well and incubated overnight at 37°C, 5% CO2.
(§5) 4. The plates were analyzed by reading the absorbance at a wavelength of 570 nm and 650 nm using the plate-reader Fluostar Omega. The measured absorbance at 570 nm is proportional to the number of living cells. IC50 values (concentration of compound causing 50% cell mortality) were read from the charts by interpolation to 50% cell survival.

HL60 cells = assay: MTT cytotoxicity assay, HL60 cells; settings: leukaemia cells HL60
Description: as §1
- HL60 cells (human acute myelogenous leukaemia)
as §2, §3, §4, §5

K562 cells = assay: MTT cytotoxicity assay, K562 cells; settings: chronic myelogenous leukaemia cells K562
Description: as §1
- K562 cells (human chronic myelogenous leukaemia) and
as §2, §3, §4, §5

HeLa cells = assay: MTT cytotoxicity assay, HeLa cells; settings: uterine cervix cancer cells (HeLa)
Description: as §1
- HeLa cells (uterine cervix cancer)
as §2, §3, §4, §5

CCC12C(=O)C(CC)(C(c3ccccc3)=C1c1ccccc1)C1C(=O)N(CCCN(C)C)C(=O)C12 (stereo not drawn) [a6]
toxicity to HUVEC cells (in words) (HUVEC cells): not toxic
toxicity to HL60 cells (in words) (HL60 cells; listed as Compound a6): not toxic
toxicity to HL60 cells (in words) (HL60 cells; listed as compound a6): selectively toxic; also recorded: highly toxic
toxicity to K562 cells (in words) (K562 cells; listed as Compound a6): toxic
toxicity to K562 cells (in words) (K562 cells; listed as compound a6): selectively toxic; also recorded: highly toxic
toxicity to HeLa cells (in words) (HeLa cells): not toxic

CCC12C(=O)C(CC)(C(c3ccccc3)=C1c1ccccc1)C1C(=O)N(CCN(C)C)C(=O)C12 (stereo not drawn) [a3]
toxicity to HUVEC cells (in words) (HUVEC cells): not toxic
toxicity to HL60 cells (in words) (HL60 cells; listed as Compound a3): not toxic
toxicity to HL60 cells (in words) (HL60 cells; listed as compound a3): selectively toxic; also recorded: highly toxic
toxicity to K562 cells (in words) (K562 cells; listed as Compound a3): toxic
toxicity to K562 cells (in words) (K562 cells; listed as compound a3): selectively toxic; also recorded: highly toxic
toxicity to HeLa cells (in words) (HeLa cells): not toxic

CCN(CC)CCN1C(=O)C2C(C1=O)C1(CC)C(=O)C2(CC)C(c2ccccc2)=C1c1ccccc1 (stereo not drawn) [a4]
toxicity to HUVEC cells (in words) (HUVEC cells): not toxic
toxicity to HL60 cells (in words) (HL60 cells; listed as Compound a4): not toxic
toxicity to HL60 cells (in words) (HL60 cells; listed as compound a4): selectively toxic; also recorded: highly toxic
toxicity to K562 cells (in words) (K562 cells; listed as Compound a4): toxic
toxicity to K562 cells (in words) (K562 cells; listed as compound a4): selectively toxic; also recorded: highly toxic
toxicity to HeLa cells (in words) (HeLa cells): not toxic

CCC12C(=O)C(CC)(C(c3ccccc3)=C1c1ccccc1)C1C(=O)N(CCN3CCCCC3)C(=O)C12 (stereo not drawn) [a5]
toxicity to HUVEC cells (in words) (HUVEC cells): not toxic
toxicity to HL60 cells (in words) (HL60 cells; listed as Compound a5): not toxic
toxicity to HL60 cells (in words) (HL60 cells; listed as compound a5): selectively toxic; also recorded: highly toxic
toxicity to K562 cells (in words) (K562 cells; listed as Compound a5): toxic
toxicity to K562 cells (in words) (K562 cells; listed as compound a5): selectively toxic; also recorded: highly toxic
toxicity to HeLa cells (in words) (HeLa cells): not toxic
